Test results reported in patent US7538241B2, “Hsp90 family protein inhibitors” (Kyowa Hakko Kogyo Co., Ltd., priority 2003, dated 2009).
At least one structure is not confirmed: it was looked up by name or label, or the drawing left a doubt. Some entries share one result that the patent states for a list of compounds.

How the values were obtained:
[1] = system: human mammary cancer-derived KPL-4 cells; assay: Cell growth inhibition test with KPL-4 cells (WST-1); type: cell-based; details: 72 hours, read-out: 50% growth inhibition concentration (GI50)
Description: In a 96-well plate (Nunc), human mammary cancer-derived KPL-4 cells were sown in an amount of 2000 cells/well, and pre-incubated in 10% fetal calf serum (FCS)-containing Dulbecco Modified Eagle Medium (DMEM) (incubation medium) in a 5% carbon dioxide incubator at 37° C. for 24 hours. A dimethylsulfoxide (DMSO) solution of a test compound controlled at 10 mmol/L was stepwise diluted with the incubation medium, and added to each well in a total amount of 100 μL/well, and incubated in the 5% carbon dioxide incubator at 37° C. for 72 hours. After the incubation, WST-1 {4-[3-(4-Iodophenyl)-2-(4-nitrophenyl)-2H-5-tetrazolio]-1,3-benzene disulfonate}-labeled mixture (Rosh Diagnostic) diluted 2-fold with the incubation medium was added thereto in an amount of 20 μL/well, and incubated in the 5% carbon dioxide incubator at 37° C. for 1 hour. Using a microplate spectrophotometer (Biorad's Model 550), the absorbance at 450 nm and 655 nm of each well was measured. The cell growth inhibition activity of the test compound was indicated by the 50% growth inhibition concentration (GI50) thereof. A method of calculating GI50 is described. The absorbance at 655 nm of each well was subtracted from the absorbance at 450 nm thereof to give a value (absorbance difference). The absorbance difference obtained with the cells without being treated with the test compound was taken as 100%, and this was compared with the absorbance difference obtained with the cells treated with the test compound to give the concentration of the compound for 50% cell growth inhibition, and this is referred to as GI50.

[2] = molecular target: T1, Human N-terminal recombinant Hsp90 protein (region of amino acids 9 to 236) (Homo sapiens, UniProt P07900); assay: Hsp90 protein binding assay (competition with biotinylated Radicicol); details: at concentrations of at most 10 μmol/L
T1 construct: region of amino acids 9 to 236; made in house

[3] = system: human chronic myelocytic leukemia-derived K562 cells; assay: Cell growth inhibition test with K562 cells (WST-1); type: cell-based; details: 72 hours, read-out: 50% growth inhibition concentration (GI50)
Description: (§1) In a 96-well plate (Nunc), human chronic myelocytic leukemia-derived K562 cells were sown in an amount of 1500 cells/well, and pre-incubated in 10% FCS-containing Rosewell Park Memorial Institute's Medium (RPMI) 1640 (Nissui) (incubation medium) in a 5% carbon dioxide incubator at 37° C. for 5 hours. Next, a DMSO solution of a test compound controlled at 10 mmol/L was stepwise diluted with the incubation medium, and added to each well in a total amount of 100 μL/well, and further incubated in the 5% carbon dioxide incubator at 37° C. for 72 hours. After the incubation, WST-1-labeled mixture (Rosh Diagnostic) diluted 2-fold with the incubation medium was added thereto in an amount of 20 μL/well, and incubated in the 5% carbon dioxide incubator at 37° C. for 2 hours. Using a microplate spectrophotometer (Biorad's Model 550), the absorbance at 450 nm and 655 nm of each well was measured. The cell growth inhibition activity of the test compound was indicated by the 50% growth inhibition concentration (GI50) thereof, like in Test Example 2.

[4] = system: human multiple myeloma-derived KMS-11 cells; assay: Cell growth inhibition test with KMS-11 cells (WST-1); type: cell-based; details: 72 hours, read-out: 50% growth inhibition concentration (GI50)
Description: as §1, with “human multiple myeloma-derived KMS-11” for “human chronic myelocytic leukemia-derived K562”, “of 4000” for “of 1500”, “FCS-containing RPMI” for “FCS-containing Rosewell Park Memorial Institute's Medium (RPMI)”, “for 24” for “for 5”

Erk2 = assay: Western blotting of non-Hsp90 client protein in KMS-11 cells; type: cell-based, human; details: 10 μmol/L and 1.0 μmol/L, 24 hours, FIG. 1
Description: (§2) Human multiple myeloma-derived KMS-11 cells [In Vitro Cell. Dev. Biol., 25, 723 (1989)], which had been diluted with a 10% fetal calf serum-containing RPMI 1640 (incubation medium) to 100,000 cellImL, were put in a 6-well plastic plate for cell incubation (Nunc), in an amount of 3 mL/well. It is reported that the KMS-11 cells express a large quantity of FGFR3 (fibroblast growth factor receptor 3) as a result of translocation between the immunoglobulin gene in 14q32 and the FGFR3 gene in 4p16.3 [Blood 90, 4062 (1997)]. […]
(§3) To the thus-collected cells, added was a cooled cytolysis buffer (50 mmol/L HEPES NaOH, pH 7.4, 250 mmol/L sodium chloride, 1 mmol/L ethylenediamine-tetraacetic acid, 1% Nonidet P-40, 1 mmol/L dithiothreitol, 1 mmol/L phenylmethylsulfonyl fluoride, 5 μg/mL leupeptin), and kept at 4° C. for 30 minutes for cytolysis. […] The protein concentration in the resulting supernatant was measured, and samples were prepared so as to have the same protein amount for each lane, and these were subjected to SDS (sodium dodecylsulfate)-polyacrylamide gel electrophoresis for protein separation.
(§4) Thus separated, the protein sample was transferred onto a polyvinylidene difluoride membrane (Millipore). […] After further reaction with an ECL reagent (Amersham Biosciences), the protein bands were detected on an X-ray film. […]

[5] = system: FGFR3 (fibroblast growth factor receptor 3); assay: Deletion of protein encoded by immunoglobulin gene-translocated partner gene in KMS-11 cells (Western blotting); type: cell-based, human; details: 10 μmol/L and 1.0 μmol/L, 24 hours, FIG. 1
Description: as §2, §3, §4

Molecule	GI50 [1]	inhibition of the binding of biotinylated Radicicol to the Hsp90 protein [2]	GI50 [3]	other results
CCOC(=O)C(C(=O)OCC)C(O)CCc1c(CC)c(O)cc(O)c1-c1ccccc1 (stereo not shown) [Compound 184, Diethyl 2-{3-[2-ethyl-3,5-dihydroxy-6-phenylphenyl]-1-hydroxypropyl}di-propanoate]	≤ 50 µM	at least 30%		
CCc1c(O)cc(O)c(-c2ccccc2)c1CCCOCCCN1CCCC1=O [Compound 164, 6-Ethyl-5-{3-[3-(2-oxopyrrolidon-1-yl)propoxy]propyl}-4-phenylbenzene-1,3-diol]	≤ 50 µM	at least 30%		
CCc1c(O)cc(O)c(-c2ccccc2)c1CC1=NC(C(=O)OC)CO1 (stereo not shown) [Compound 313]		at least 30%	≤ 50 µM	
CCc1c(O)cc(O)c(-c2ccccc2)c1CC1O[C@@H](CO)[C@H](CO)O1 [Compound 227]		at least 30%	≤ 50 µM	GI50 [4]: ≤ 50 µM
CCc1c(O)cc(O)c(-c2ccccc2)c1CCOCOC [Compound 113, 6-Ethyl-5-[2-(2-methoxymethoxy)ethyl]-4-phenylbenzene-1,3-diol]	≤ 50 µM	at least 30%	≤ 50 µM	GI50 [4]: ≤ 50 µM
6-Bromo-4-(3-methoxyphenyl)-5-[2-(tetrahydropyran-2-ylmethoxy)ethyl]benzene-1,3-diol [Compound 108]	≤ 50 µM			
CCc1c(O)cc(O)c(-c2cccc(O)c2)c1CCOCCOC [Compound 166, 6-Ethyl-4-(3-hydroxyphenyl)-5-[2-(2-methoxyethoxy)ethyl]benzene-1,3-diol]				protein amount of Erk2 (non-Hsp90 client protein) (Erk2): no change; deletion of FGFR3 encoded by the immunoglobulin gene-translocated partner gene [5]: deletion of FGFR3
CCc1c(O)cc(O)c(-c2ccccc2)c1CC1O[C@@H](CO)[C@@H](CO)O1 (stereo partly drawn) [Compound 302, 5-{[meso-4,5-Bis(hydroxymethyl)-1,3-dioxolan-2-yl]methyl}-6-ethyl-4-phenylbenzene-1,3-diol]		at least 30%	≤ 50 µM	
CC(=O)c1c(O)cc(O)c(-c2ccccc2)c1CCC(=O)N(CCO)CCO [Compound 186, 3-[3-(2-Acetyl-3,5-dihydroxy-6-phenylphenyl)]-N,N-bis(2-hydroxyethyl)propanamide]	≤ 50 µM			
CCc1c(O)cc(O)c(-c2ccccc2)c1CCC(=O)N(CCO)CCO [Compound 187, 3-[3-(2-Ethyl-3,5-dihydroxy-6-phenylphenyl)]-N,N-bis(2-hydroxyethyl)propanamide]	≤ 50 µM			
CCc1c(O)cc(O)c(-c2ccccc2)c1CC(=O)N(CCO)CCO [Compound 198, 2-[3-(2-Ethyl-3,5-dihydroxy-6-phenylphenyl)]-N,N-bis(2-hydroxyethyl)acetamide]		at least 30%	≤ 50 µM	
3-Hydroxy-5-(2-methoxyethyl)-4-phenylphenyl trifluoromethanesulfonate [Compound 140]	≤ 50 µM			
COCCc1c(C(=O)C(C)C)c(O)cc(O)c1-c1ccccc1 [Compound 93, 1-[2,4-dihydroxy-6-(2-methoxyethyl)-5-phenylphenyl]-2-methylpropanone]	≤ 50 µM	at least 30%		
OC[C@H]1OC(Cc2c(Br)c(O)c(Br)c(O)c2-c2ccccc2)O[C@@H]1CO [Compound 231, 5-{[(4R,5R)-4,5-bis(hydroxymethyl)-1,3-dioxolan-2-yl]methyl}-2,6-dibromo-4-phenylbenzene-1,3-diol]		at least 30%		
CCc1c(O)cc(O)c(-c2ccccc2)c1CCN1CCCC1CO (stereo not shown) [Compound 316, 6-Ethyl-5-{2-[2-(hydroxymethyl)pyrrolidin-1-yl]ethyl}-4-phenylbenzene-1,3-diol]		at least 30%		
CCc1c(O)cc(O)c(-c2ccccc2)c1CCCOCC(=O)NC [Compound 159, 2-[3-(2-Ethyl-3,5-dihydroxy-6-phenylphenyl)propoxy]-N-methylacetamide]		at least 30%		
